Experimental data: PubChem BioAssay AID1259308 (NCATS, 2017)
In all, the deposit lists about 59,000 reagents; below is a part drawn at random. Over the whole deposit, about 1,510 (2.6%) are marked active. 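Calls use total luciferase alone and ignore viability, so some active siRNAs may act by altering cell number.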 Reagents against one gene are numbered here. Further read-outs or replicates are left out here. No sequences are given here.

- Purpose: 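Genes whose loss raises luciferase production in HEK293 cells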 (primary screen)
- System: human HEK293 embryonic kidney cells stably expressing firefly luciferase (HEK-CMV-Luc2-Hygro)
- Reagent: single siRNA against human genes, 0.8 pmol siRNA per well
- Duration: 72 h
- Read-out: 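Luciferase light (ONE-Glo) measured on one replicate plate set and viability (CellTiter-Glo) on the other, scaled to a negative control siRNA, with robust z-scores and luciferase per cell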
- Direction: total luciferase, z-score: higher = more reporter protein produced
- Call rule: 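Active when the median/MAD z-score for overall luciferase is greater than 3; a gene was taken forward for validation with new siRNAs if at least two of its three siRNAs passed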
- Calls: active = raised luciferase; inactive = no rise

gene	siRNA no.	total luciferase, z-score	call
GDF11	1	-0.586	inactive
GDF11	2	-0.165	inactive
GDF11	3	1.1	inactive
ELF2	1	0.7	inactive
ELF2	2	0.254	inactive
ELF2	3	-0.513	inactive
SMARCD1	1	-0.218	inactive
SMARCD1	2	-0.655	inactive
SMARCD1	3	-0.668	inactive
LSMEM2	1	-0.346	inactive
LSMEM2	2	-0.00601	inactive
LSMEM2	3	-0.185	inactive
SLC44A1	1	0.0821	inactive
SLC44A1	2	-1.05	inactive
SLC44A1	3	-0.424	inactive
KLHL17	1	-1.2	inactive
KLHL17	2	-0.229	inactive
KLHL17	3	-0.903	inactive
PCBP3	1	0.584	inactive
PCBP3	2	-0.632	inactive
PCBP3	3	0.735	inactive
RUBCNL	1	0.521	inactive
RUBCNL	2	-0.752	inactive
RUBCNL	3	-0.19	inactive

Copied from the entries so far, 2 entries:
gene	siRNA no.	total luciferase, z-score	call
GDF11	2	-0.165	inactive
GDF11	3	1.1	inactive
